The list is a part of this screen's results and no random one: it is rich in T/C values a quarter to a half above the control, in often repeated tests (any T/C) and in doses without a T/C. Further doses and runs are listed elsewhere. T/C: endpoint of the treated group in % of that of the vehicle group. Some doses have a count of surviving animals in place of a T/C: the source holds a T/C of zero for them, seemingly a mark for toxic or unscored doses. Some survivor counts are full or nearly so, which does not show that the dose was tolerated: survival well below the control is almost never listed, so the zero probably covers shortened survival too. Counts of survivors are from the toxicity check (mostly the fifth day) where no day follows; animals may have died later. Schedules are NCI's codes, read here as Q, the interval in days (D) or hours (H), X, the number of doses. Some doses were run more than once; the values are given in rising order. Some structures stand for samples that the source files as different forms (salt, stereo form or complex); doses refer to the form tested. For survival time, this PubChem deposit counts one and a half times the control or more as active, and values a quarter to a half above the control carry no call in these data; other NCI protocols may use other cut-offs.
Tested on: P388 leukemia ip, CD2F1 mice, survival T/C
Assay: NCI In Vivo Anticancer Drug Screen. Data for tumor model P388 Leukemia (intraperitoneal) in CD2F1 (CDF1) mice
Settings: T/C endpoint: median survival time, higher T/C = longer survival
[1] = dose: 50.0 mg/kg/injection, schedule: Q01DX005 (ip), vehicle: saline with Tween-80
[2] = dose: 100.0 mg/kg/injection, schedule: Q01DX005 (ip), vehicle: saline with Tween-80
[3] = dose: 200.0 mg/kg/injection, schedule: Q01DX005 (ip), vehicle: saline with Tween-80
[4] = dose: 400.0 mg/kg/injection, schedule: Q01DX001 (ip), vehicle: saline with Tween-80
[5] = dose: 50.0 mg/kg/injection, schedule: Q01DX005 (ip), vehicle: Klucel (hydroxypropylcellulose) (HPC)
[6] = dose: 100.0 mg/kg/injection, schedule: Q01DX005 (ip), vehicle: Klucel (hydroxypropylcellulose) (HPC)
[7] = dose: 200.0 mg/kg/injection, schedule: Q01DX005 (ip), vehicle: Klucel (hydroxypropylcellulose) (HPC)
[8] = dose: 50.0 mg/kg/injection, schedule: Q01DX009 (ip), vehicle: saline with Tween-80
[9] = dose: 100.0 mg/kg/injection, schedule: Q01DX009 (ip), vehicle: saline with Tween-80
[10] = dose: 400.0 mg/kg/injection, schedule: Q04DX003 (ip), vehicle: Klucel (hydroxypropylcellulose) (HPC)
[11] = dose: 12.5 mg/kg/injection, schedule: Q01DX009 (ip), vehicle: saline with Tween-80
[12] = dose: 50.0 mg/kg/injection, schedule: Q01DX009 (ip), vehicle: saline
[13] = dose: 100.0 mg/kg/injection, schedule: Q01DX009 (ip), vehicle: saline
[14] = dose: 100.0 mg/kg/injection, schedule: Q04DX003 (ip), vehicle: Klucel (hydroxypropylcellulose) (HPC)
[15] = dose: 25.0 mg/kg/injection, schedule: Q01DX009 (ip), vehicle: saline
[16] = dose: 200.0 mg/kg/injection, schedule: Q01DX009 (ip), vehicle: Klucel (hydroxypropylcellulose) (HPC)

Structure (SMILES): Cc1cc(NC(=S)SCc2ccc(F)cc2)ccc1Br
- T/C (dose: 200.0 mg/kg/injection, schedule: Q01DX009 (ip), vehicle: Klucel (hydroxypropylcellulose) (HPC), evaluated on day 20): 125 % of control
- T/C (dose: 200.0 mg/kg/injection, schedule: Q01DX009 (ip), vehicle: Klucel (hydroxypropylcellulose) (HPC), evaluated on day 30): 131 % of control
- survivor count (dose: 400.0 mg/kg/injection, schedule: Q01DX009 (ip), vehicle: Klucel (hydroxypropylcellulose) (HPC)): 3 of 6

Structure (SMILES): C/C(=N\NC(=S)N1CCC(N2CCCCC2)CC1)c1ccccn1
- survivor count (dose: 25.0 mg/kg/injection, schedule: Q01DX005 (ip), vehicle: saline with Tween-80): 3 of 6
- survivor count [1]: 0 of 6
- survivor count [2]: 0 of 6
- survivor count [3]: 0 of 6

Structure (SMILES): C/C(=N\NC(=S)N1CCCC1)c1cnccn1
- survivor count [1]: 1 of 6
- survivor count [2]: 0 of 6
- survivor count [3]: 0 of 6

Structure (SMILES): CCCCCCCCC(O)C#CC(N)=O (stereo not drawn)
- survivor count [4]: 0 of 6

Structure (SMILES): Nc1c(-c2ccc(C3=NCCN3)cc2)[nH]c2cc(C3=NCCN3)ccc12
- T/C (dose: 25.0 mg/kg/injection, schedule: Q01DX005 (ip), vehicle: Klucel (hydroxypropylcellulose) (HPC)): 128 % of control
- T/C [5]: 130 % of control
- survivor count [6]: 0 of 6
- survivor count [7]: 0 of 6

Structure (SMILES): CS/C(=N/N=C(\C)c1ccccn1)[Se][Se]/C(=N/N=C(\C)c1ccccn1)SC
- survivor count (dose: 25.0 mg/kg/injection, schedule: Q01DX009 (ip), vehicle: saline with Tween-80): 6 of 6
- survivor count [8]: 6 of 6
- survivor count [9]: 3 of 6 and 6 of 6

Structure (SMILES): N=C(N)c1nn[nH]n1
- survivor count [10]: 1 of 6

Structure (SMILES): CCN(CC)CCNc1ccc(COC(=O)NC)c2sc3ccccc3c(=O)c12
- survivor count [11]: 1 of 6
- survivor count [8]: 0 of 6
- survivor count [9]: 0 of 6
- survivor count (dose: 200.0 mg/kg/injection, schedule: Q01DX009 (ip), vehicle: saline with Tween-80): 0 of 6

Structure (SMILES): COc1cc(C)c(/C(=N/O)n2nnc(-c3ccc(C)cc3)n2)c(C)c1
- survivor count [4]: 6 of 6

Structure (SMILES): COC1=CC(=Nc2ccc(N(C)C)cc2)C=CC1=O
- survivor count [1]: 0 of 5
- survivor count [2]: 0 of 5
- survivor count [3]: 0 of 5

Structure (SMILES): CC(=O)/C(=C\c1ccco1)C(=O)CCN(C)C
- T/C (dose: 240.0 mg/kg/injection, schedule: Q01DX005 (ip), vehicle: saline): 127 % of control
- survivor count (dose: 480.0 mg/kg/injection, schedule: Q01DX005 (ip), vehicle: saline): 1 of 6

Structure (SMILES): O=C(O[C@H]1CCN2C[C@H]3C[C@H](CN4C(=O)CCC[C@H]34)[C@@H]2C1)c1ccc(O)cc1
- survivor count [5]: 1 of 5
- survivor count [6]: 2 of 5
- survivor count [7]: 0 of 5

Structure (SMILES): O=CC1CO1 (stereo not drawn)
- T/C [12]: 127 % of control
- survivor count [13]: 4 of 6
- T/C (dose: 100.0 mg/kg/injection, schedule: Q04DX003 (ip), vehicle: saline): 125 % of control

Structure (SMILES): CC(=O)SCC1C(=O)CC(C)(C)CC1=O
- survivor count [14]: 0 of 6
- survivor count [10]: 0 of 6

Structure (SMILES): Cc1onc(-c2c(Cl)cccc2Cl)c1C(=O)SC1=NC(C)N2C(SC(=O)c3c(-c4c(Cl)cccc4Cl)noc3C)=NC(C)N12 (stereo not drawn)
- survivor count [3]: 6 of 6

Structure (SMILES): CCN(CC)CCNc1ccc([N+](=O)[O-])c2sc3ccccc3c(=O)c12
- T/C [15]: 129 % of control
- T/C [8]: 142 and 144 % of control
- T/C [9]: 145 % of control
- survivor count (dose: 400.0 mg/kg/injection, schedule: Q01DX009 (ip), vehicle: saline with Tween-80): 6 of 6

Structure (SMILES): O/N=C/C=N/O.O/N=C/C=N/O.[Ni]
- survivor count (dose: 12.5 mg/kg/injection, schedule: Q01DX009 (ip), vehicle: saline): 0 of 6
- survivor count [15]: 2 of 6
- survivor count [12]: 0 of 6
- survivor count [13]: 0 of 6
- survivor count (dose: 200.0 mg/kg/injection, schedule: Q01DX009 (ip), vehicle: saline): 0 of 6

Structure (SMILES): O=C(/C=C/c1ccccc1O)/C=C/c1ccccc1O
- T/C [11]: 125 % of control
- survivor count [8]: 4 of 6

Structure (SMILES): COC1C(O)C(CO)OC1n1ccc(NC(=O)c2ccccc2)nc1=O (stereo not drawn)
- survivor count (dose: 120.0 mg/kg/injection, schedule: Q01DX005 (ip), vehicle: Klucel (hydroxypropylcellulose) (HPC)): 6 of 6

Structure (SMILES): COc1cc2cc(c1Cl)N(C)C(=O)/C=C/C1(C)OC1C(C)C1CC(O)(NC(=O)O1)C(OC)/C=C/C=C(\C)C2OC (stereo not drawn)
- T/C (dose: 8.0 micrograms/kg/injection, schedule: Q01DX009 (ip), vehicle: distilled water + alcohol): 136 % of control
- T/C (dose: 32.0 micrograms/kg/injection, schedule: Q01DX009 (ip), vehicle: distilled water + alcohol): 128 and 132 % of control

Structure (SMILES): C[C@@]12CCC[C@@H]1OC(=O)C2
- survivor count [2]: 0 of 6
- survivor count [3]: 0 of 6

Structure (SMILES): CCCCOc1cccc2c(NCCNc3c4ccccc4nc4c(OCCCC)cccc34)c3ccccc3nc12
- survivor count (dose: 20.0 mg/kg/injection, schedule: Q01DX009 (ip), vehicle: other): 2 of 6

Structure (SMILES): CNCC(=O)Nc1ccc2c(c1)C(=O)c1ccc(NC(=O)CNC)cc1C2=O
- survivor count (dose: 189.5 mg/kg/injection, schedule: Q01DX001 (ip), vehicle: suspension in saline): 0 of 6
- survivor count (dose: 379.0 mg/kg/injection, schedule: Q01DX001 (ip), vehicle: suspension in saline): 1 of 6

Structure (SMILES): O=C(Nc1nncs1)C(F)(F)F
- T/C (dose: 25.0 mg/kg/injection, schedule: Q01DX009 (ip), vehicle: water): 142 % of control
- survivor count (dose: 100.0 mg/kg/injection, schedule: Q01DX009 (ip), vehicle: distilled water + Tween-80): 4 of 6
- survivor count (dose: 100.0 mg/kg/injection, schedule: Q01DX009 (ip), vehicle: water): 4 of 6
- survivor count (dose: 200.0 mg/kg/injection, schedule: Q01DX009 (ip), vehicle: distilled water + Tween-80): 1 of 6
- survivor count (dose: 200.0 mg/kg/injection, schedule: Q01DX009 (ip), vehicle: water): 2 of 6
- survivor count (dose: 400.0 mg/kg/injection, schedule: Q01DX009 (ip), vehicle: distilled water + Tween-80): 0 of 6

Structure (SMILES): Brc1ccccc1C(Nc1nncs1)Nc1nncs1
- T/C (dose: 120.0 mg/kg/injection, schedule: Q01DX005 (ip), vehicle: saline with Tween-80, evaluated on day 20): 136 % of control
- T/C (dose: 120.0 mg/kg/injection, schedule: Q01DX005 (ip), vehicle: saline with Tween-80, evaluated on day 30): 132 % of control

Structure (SMILES): CC1(C)COC(c2cc(Br)ccc2Br)=N1
- survivor count [8]: 6 of 6

Structure (SMILES): O=[N+]([O-])c1cc(S(=O)(=O)O)cc([N+](=O)[O-])c1Cl
- survivor count [16]: 2 of 6

Structure (SMILES): COC(C)(C)[CH]([Hg][Cl])n1ccccc1=O (stereo not drawn)
- survivor count (dose: 50.0 mg/kg/injection, schedule: Q04DX003 (ip), vehicle: Klucel (hydroxypropylcellulose) (HPC)): 0 of 6
- survivor count [14]: 0 of 6
- survivor count (dose: 200.0 mg/kg/injection, schedule: Q04DX003 (ip), vehicle: Klucel (hydroxypropylcellulose) (HPC)): 0 of 6
- survivor count [10]: 0 of 6

Structure (SMILES): O=C(COc1ccc(Cl)cc1)OC(=O)COc1ccc(Cl)cc1
- survivor count (dose: 400.0 mg/kg/injection, schedule: Q01DX009 (ip), vehicle: other): 5 of 6

Structure (SMILES): Cc1cccc(NC(=S)/N=C(\SCc2ccccc2)N(C)c2ccccc2)c1
- survivor count [3]: 6 of 6

Structure (SMILES): COC1=CC(=O)C(O)=C(CC2(C)C(C)CCC3(C)C2CCCC3(C)C)C1=O (stereo not drawn)
- survivor count [16]: 3 of 6

Structure (SMILES): c1ccc(-c2c(-c3ccccc3)[c+]2-c2ccccc2)cc1
- survivor count (dose: 400.0 mg/kg/injection, schedule: Q01DX001 (ip), vehicle: gum acacia): 4 of 5

Structure (SMILES): CC1=NOC(=O)/C1=C/c1ccc(Cl)c(Cl)c1
- survivor count [3]: 0 of 6

Structure (SMILES): CC(=O)C(C)(CC#N)C(CC=O)CCC#N (stereo not drawn)
- T/C (dose: 120.0 mg/kg/injection, schedule: Q01DX005 (ip), vehicle: saline with Tween-80): 125 % of control
- T/C (dose: 240.0 mg/kg/injection, schedule: Q01DX005 (ip), vehicle: saline with Tween-80): 140 % of control

Reference: PubChem BioAssay AID330 (DTP/NCI, 2004)
